Some of the results follow.
Tests used:
Assay in all cases: log2 fold change, soluble protein after heating vs DMSO (PISA); higher = thermal stabilisation; K562 cells, 10 uM, 30 min; active = over 0.2 and 3.5 SD of the protein, either way, in both replicates (recomputed)
[1] = compound: CC[C@@H]1C(=O)N(C)c2cnc(Nc3ccc(C(=O)NC4CCN(C)CC4)cc3OC)nc2N1C1CCCC1
Outline: (§1)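 For each measurement, 10 μM compound was applied for 30 min to K562 cells at 2×10^6 cells/mL. Aliquots were heated for 3 min across 48°C-58°C, pooled, and extracted in PBS with 0.5% NP-40 at 4°C; the supernatant after 21,000xg for 90 min was soluble protein. This was quantified by TMTpro 16plex LC-MS/MS with channel sums equalised, and thermal stability was reported relative to control samples from duplicates, on a log2 fold-change scale.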

Chains of the proteins cited; added tags and fusions are not shown. Lines headed by an entry give the natural chain unless they say otherwise; changes in a name come on top.
UniProt Q9UHY1: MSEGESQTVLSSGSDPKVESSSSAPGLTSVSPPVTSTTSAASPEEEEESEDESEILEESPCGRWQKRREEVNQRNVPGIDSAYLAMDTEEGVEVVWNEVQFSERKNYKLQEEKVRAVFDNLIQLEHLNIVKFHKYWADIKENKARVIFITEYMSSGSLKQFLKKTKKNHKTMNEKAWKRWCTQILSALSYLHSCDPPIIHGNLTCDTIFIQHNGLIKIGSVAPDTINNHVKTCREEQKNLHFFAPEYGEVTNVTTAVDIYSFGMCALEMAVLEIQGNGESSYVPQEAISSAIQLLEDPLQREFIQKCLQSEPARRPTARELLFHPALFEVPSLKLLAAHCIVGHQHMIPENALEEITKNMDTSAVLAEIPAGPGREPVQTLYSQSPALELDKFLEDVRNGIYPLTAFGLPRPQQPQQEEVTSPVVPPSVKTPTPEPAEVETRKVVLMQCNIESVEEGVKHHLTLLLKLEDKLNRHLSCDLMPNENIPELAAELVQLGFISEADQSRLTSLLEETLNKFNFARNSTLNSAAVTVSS
UniProt Q96TA1: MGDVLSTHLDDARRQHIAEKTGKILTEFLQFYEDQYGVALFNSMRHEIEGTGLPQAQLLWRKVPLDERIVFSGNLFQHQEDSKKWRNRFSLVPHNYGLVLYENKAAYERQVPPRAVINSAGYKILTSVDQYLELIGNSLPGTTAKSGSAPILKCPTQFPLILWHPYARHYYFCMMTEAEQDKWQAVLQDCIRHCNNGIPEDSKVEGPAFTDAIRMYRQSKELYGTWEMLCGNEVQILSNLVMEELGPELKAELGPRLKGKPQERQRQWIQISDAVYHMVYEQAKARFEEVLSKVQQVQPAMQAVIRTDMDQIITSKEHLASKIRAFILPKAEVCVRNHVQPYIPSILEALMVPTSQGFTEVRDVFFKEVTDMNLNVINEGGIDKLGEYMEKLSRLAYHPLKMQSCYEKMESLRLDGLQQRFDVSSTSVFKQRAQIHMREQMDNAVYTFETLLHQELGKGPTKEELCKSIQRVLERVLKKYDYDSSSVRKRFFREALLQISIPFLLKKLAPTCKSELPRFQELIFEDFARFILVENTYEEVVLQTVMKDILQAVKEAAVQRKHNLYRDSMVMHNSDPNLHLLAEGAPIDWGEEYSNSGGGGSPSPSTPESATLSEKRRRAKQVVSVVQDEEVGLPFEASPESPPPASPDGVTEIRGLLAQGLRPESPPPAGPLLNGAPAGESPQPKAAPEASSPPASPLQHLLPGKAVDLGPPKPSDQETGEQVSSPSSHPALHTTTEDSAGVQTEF
UniProt Q9UMS0: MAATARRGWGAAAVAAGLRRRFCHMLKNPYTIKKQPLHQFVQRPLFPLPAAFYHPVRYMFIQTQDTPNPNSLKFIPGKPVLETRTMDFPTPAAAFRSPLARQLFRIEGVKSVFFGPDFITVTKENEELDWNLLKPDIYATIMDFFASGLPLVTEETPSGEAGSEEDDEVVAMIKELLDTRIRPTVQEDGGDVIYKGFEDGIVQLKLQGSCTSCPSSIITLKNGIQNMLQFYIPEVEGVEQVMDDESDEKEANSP
UniProt Q9UNZ2: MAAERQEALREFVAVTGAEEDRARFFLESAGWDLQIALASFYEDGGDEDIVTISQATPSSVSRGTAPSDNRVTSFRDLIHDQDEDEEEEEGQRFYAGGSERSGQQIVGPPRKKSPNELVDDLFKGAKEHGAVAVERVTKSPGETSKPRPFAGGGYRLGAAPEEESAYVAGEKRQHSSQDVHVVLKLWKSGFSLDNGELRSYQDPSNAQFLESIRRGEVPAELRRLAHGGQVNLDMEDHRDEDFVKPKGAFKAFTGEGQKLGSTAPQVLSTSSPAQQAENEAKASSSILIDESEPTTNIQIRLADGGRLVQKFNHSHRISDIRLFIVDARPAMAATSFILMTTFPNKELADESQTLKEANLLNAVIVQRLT
UniProt Q8NCF5: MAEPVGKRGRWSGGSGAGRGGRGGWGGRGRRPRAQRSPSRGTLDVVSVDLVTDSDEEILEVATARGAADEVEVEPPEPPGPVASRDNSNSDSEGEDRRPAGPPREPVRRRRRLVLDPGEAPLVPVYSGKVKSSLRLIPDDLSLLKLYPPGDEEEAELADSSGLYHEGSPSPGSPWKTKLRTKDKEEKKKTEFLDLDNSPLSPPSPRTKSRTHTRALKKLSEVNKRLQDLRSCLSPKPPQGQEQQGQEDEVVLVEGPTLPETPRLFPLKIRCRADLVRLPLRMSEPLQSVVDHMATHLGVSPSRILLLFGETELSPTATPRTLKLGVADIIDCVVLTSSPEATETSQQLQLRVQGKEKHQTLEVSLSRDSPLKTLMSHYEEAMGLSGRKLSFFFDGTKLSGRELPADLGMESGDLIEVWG
UniProt Q9NX02: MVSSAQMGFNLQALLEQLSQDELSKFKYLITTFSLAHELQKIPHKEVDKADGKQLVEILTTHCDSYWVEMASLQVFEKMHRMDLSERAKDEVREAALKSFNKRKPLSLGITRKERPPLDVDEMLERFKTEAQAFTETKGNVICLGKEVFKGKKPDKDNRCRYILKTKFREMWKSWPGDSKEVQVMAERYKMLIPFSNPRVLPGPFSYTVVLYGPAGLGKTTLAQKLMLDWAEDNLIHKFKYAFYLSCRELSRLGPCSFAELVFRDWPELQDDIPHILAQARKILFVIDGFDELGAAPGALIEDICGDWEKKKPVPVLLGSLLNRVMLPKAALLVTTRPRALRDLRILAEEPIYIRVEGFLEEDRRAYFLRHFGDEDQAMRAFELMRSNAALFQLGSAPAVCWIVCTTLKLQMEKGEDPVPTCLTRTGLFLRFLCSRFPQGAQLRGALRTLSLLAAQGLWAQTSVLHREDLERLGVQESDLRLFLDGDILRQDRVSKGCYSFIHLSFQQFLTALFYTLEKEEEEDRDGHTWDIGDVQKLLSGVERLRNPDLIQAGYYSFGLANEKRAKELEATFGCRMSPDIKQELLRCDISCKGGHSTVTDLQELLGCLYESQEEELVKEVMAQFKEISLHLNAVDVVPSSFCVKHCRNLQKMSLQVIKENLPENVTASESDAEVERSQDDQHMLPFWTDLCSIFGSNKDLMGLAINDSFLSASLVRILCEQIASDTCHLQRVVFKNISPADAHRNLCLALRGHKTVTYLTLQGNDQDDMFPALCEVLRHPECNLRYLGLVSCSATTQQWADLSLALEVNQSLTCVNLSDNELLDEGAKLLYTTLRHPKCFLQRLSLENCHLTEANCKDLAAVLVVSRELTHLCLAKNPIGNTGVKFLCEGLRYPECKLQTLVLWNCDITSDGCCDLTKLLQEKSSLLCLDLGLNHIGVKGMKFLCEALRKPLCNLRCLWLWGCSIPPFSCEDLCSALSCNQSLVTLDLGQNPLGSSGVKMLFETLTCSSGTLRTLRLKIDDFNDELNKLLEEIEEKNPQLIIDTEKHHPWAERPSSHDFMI
UniProt O14524: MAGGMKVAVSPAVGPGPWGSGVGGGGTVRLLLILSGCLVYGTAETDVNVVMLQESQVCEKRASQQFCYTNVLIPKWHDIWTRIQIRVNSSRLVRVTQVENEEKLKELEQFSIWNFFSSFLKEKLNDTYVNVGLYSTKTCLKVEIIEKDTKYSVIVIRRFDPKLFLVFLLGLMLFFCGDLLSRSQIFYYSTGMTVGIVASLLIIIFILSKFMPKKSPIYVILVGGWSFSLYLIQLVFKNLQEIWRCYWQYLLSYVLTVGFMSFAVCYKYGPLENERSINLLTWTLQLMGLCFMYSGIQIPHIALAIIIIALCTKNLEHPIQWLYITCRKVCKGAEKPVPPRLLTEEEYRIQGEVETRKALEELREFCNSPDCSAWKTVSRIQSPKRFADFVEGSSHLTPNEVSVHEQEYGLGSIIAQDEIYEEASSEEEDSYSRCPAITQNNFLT
UniProt Q8TD19: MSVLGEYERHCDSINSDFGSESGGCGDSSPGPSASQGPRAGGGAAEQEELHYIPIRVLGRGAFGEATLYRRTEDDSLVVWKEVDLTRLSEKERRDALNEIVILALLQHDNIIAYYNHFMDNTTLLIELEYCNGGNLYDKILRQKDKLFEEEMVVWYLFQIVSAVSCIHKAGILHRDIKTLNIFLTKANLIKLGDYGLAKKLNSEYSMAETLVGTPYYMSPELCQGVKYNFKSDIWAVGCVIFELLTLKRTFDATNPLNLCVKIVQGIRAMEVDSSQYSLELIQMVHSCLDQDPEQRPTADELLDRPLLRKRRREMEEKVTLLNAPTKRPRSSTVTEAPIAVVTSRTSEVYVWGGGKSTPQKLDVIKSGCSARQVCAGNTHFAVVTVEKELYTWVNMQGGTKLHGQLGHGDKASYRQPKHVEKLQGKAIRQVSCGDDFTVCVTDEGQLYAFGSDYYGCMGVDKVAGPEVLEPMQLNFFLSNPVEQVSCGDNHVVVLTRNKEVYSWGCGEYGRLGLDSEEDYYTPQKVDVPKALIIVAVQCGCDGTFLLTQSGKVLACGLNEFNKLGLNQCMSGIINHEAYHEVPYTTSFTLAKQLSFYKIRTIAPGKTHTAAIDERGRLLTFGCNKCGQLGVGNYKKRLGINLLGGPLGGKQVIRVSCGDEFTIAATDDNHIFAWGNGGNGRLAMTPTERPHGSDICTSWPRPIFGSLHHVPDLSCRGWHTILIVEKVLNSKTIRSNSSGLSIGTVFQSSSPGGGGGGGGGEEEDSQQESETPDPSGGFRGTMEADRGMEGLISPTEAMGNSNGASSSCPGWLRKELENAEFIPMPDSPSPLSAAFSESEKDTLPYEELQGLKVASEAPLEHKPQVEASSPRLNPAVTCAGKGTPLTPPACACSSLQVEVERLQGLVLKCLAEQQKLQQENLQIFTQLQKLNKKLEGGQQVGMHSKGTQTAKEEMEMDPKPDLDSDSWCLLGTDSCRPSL
UniProt Q8TAT6: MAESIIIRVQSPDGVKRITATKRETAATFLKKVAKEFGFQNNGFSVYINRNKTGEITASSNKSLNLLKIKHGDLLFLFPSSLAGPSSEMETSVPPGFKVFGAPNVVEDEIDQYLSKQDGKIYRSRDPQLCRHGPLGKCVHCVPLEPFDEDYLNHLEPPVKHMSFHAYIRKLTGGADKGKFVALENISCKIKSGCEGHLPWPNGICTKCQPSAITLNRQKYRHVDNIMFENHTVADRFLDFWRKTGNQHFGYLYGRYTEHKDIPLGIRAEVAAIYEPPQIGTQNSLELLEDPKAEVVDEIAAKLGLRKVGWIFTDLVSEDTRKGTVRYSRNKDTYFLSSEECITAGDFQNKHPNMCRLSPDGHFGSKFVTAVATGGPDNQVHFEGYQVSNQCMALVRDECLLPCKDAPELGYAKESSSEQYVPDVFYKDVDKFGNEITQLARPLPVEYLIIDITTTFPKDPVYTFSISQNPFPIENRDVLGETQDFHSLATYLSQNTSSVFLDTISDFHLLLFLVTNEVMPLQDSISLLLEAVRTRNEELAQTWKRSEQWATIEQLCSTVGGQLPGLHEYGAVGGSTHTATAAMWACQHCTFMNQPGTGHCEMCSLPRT
UniProt Q8N8Q9: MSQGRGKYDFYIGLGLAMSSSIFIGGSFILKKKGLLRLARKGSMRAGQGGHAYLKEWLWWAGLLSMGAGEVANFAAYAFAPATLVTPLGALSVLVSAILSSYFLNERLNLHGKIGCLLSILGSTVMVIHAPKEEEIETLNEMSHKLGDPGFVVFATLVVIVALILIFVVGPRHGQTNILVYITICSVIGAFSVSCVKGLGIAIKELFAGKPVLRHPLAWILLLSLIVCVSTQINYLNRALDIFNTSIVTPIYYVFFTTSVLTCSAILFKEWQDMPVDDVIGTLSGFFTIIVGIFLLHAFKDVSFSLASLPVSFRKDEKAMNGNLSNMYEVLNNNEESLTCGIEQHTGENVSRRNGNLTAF
UniProt Q9Y3C1: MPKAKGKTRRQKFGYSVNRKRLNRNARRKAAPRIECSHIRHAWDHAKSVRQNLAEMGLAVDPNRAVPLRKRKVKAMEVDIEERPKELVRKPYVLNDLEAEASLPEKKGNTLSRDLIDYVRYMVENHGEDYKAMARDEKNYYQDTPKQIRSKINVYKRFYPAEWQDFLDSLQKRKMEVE
UniProt P35240: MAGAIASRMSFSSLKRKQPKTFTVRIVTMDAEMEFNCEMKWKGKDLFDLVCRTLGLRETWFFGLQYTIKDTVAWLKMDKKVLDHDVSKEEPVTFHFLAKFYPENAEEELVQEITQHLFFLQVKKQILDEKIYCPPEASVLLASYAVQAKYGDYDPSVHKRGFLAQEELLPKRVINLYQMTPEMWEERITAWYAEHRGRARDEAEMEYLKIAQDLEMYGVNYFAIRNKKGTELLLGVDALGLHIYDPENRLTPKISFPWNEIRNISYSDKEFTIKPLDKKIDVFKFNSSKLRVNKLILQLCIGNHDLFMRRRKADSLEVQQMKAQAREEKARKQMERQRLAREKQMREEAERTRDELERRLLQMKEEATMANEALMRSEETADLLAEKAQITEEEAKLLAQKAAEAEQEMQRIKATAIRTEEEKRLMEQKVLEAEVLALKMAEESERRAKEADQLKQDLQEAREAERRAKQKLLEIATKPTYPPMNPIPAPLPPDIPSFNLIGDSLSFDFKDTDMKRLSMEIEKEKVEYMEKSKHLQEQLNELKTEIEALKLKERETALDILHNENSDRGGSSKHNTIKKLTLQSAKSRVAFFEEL

volasertib = compound: CC[C@@H]1C(=O)N(C)c2cnc(Nc3ccc(C(=O)N[C@H]4CC[C@H](N5CCN(CC6CC6)CC5)CC4)cc3OC)nc2N1C(C)C [volasertib]
Outline: as §1

[2] = compound: CC[C@H](C)N1C=C(C2=C(C=C(C=C21)C3=CN=C(C=C3)N4CCNCC4)C(=O)NCC5=C(C=C(NC5=O)C)C)C
Outline: as §1

epoxomicin = compound: CC[C@H](C)[C@@H](C(=O)N[C@@H]([C@@H](C)O)C(=O)N[C@@H](CC(C)C)C(=O)[C@]1(CO1)C)NC(=O)[C@H]([C@@H](C)CC)N(C)C(=O)C [epoxomicin]
Outline: as §1

[3] = compound: CCn1c(C(=O)N(C2CC2)C2CC2)cc2c3c(ncn3C)c(Nc3cc(C)n(C)n3)nc21
Outline: as §1

[4] = compound: CCn1cc(-c2ccnc3[nH]c(-c4cccc(CN(C)C)c4)cc23)c(-c2ccc(NC(=O)N(C)C)cc2)n1
Outline: as §1

[5] = compound: CN(C)CC(=O)Nc1ccc2[nH]c(=O)c3ccccc3c2c1
Outline: as §1

rosiglitazone = compound: CN(CCOC1=CC=C(C=C1)C[C@H]2C(=O)NC(=O)S2)C3=CC=CC=N3 (racemic) [rosiglitazone]
Outline: as §1

[6] = compound: CN1C2=C(C3=C1C(=O)N(N=C3)CC4=CC(=CC=C4)N)SC(=C2)S(=O)C
Outline: as §1

[7] = compound: CN1CCC(CNc2ccc3ncc(-c4cccc(OC(F)(F)F)c4)n3n2)CC1
Outline: as §1

Target | log2 fold change [1] | log2 fold change (volasertib) | log2 fold change [2] | log2 fold change (epoxomicin) | log2 fold change [3] | log2 fold change [4] | log2 fold change [5] | log2 fold change (rosiglitazone) | log2 fold change [6] | log2 fold change [7]
NRBP1 (UniProt Q9UHY1) | inactive: -0.03 | inactive: -0.053 | inactive: 0.054 | inactive: 0.019 | inactive: -0.05 | inactive: -0.064 | inactive: 0.018 | inactive: 0.025 | inactive: -0.003 | inactive: 0.015
NIBAN2 (UniProt Q96TA1) | inactive: -0.037 | inactive: -0.102 | inactive: 0.043 | inactive: 0.039 | inactive: -0.021 | inactive: -0.023 | inactive: -0.017 | inactive: 0.011 | inactive: -0.042 | inactive: -0.018
NFU1 (UniProt Q9UMS0) | inactive: -0.101 | inactive: 0.013 | inactive: 0.011 | inactive: 0.039 | inactive: 0 | inactive: -0.048 | inactive: 0.03 | inactive: -0.003 | inactive: -0.045 | inactive: 0.038
NR2F2 (UniProt P24468) | inactive: 0.088 | inactive: -0.1 | inactive: 0.014 | inactive: 0.136 | inactive: 0.032 | inactive: -0.012 | inactive: 0.006 | inactive: 0.052 | inactive: 0.013 | inactive: 0.071
NQO2 (UniProt P16083) | inactive: -0.001 | inactive: 0.068 | inactive: -0.045 | inactive: -0.039 | inactive: 0.03 | inactive: -0.038 | inactive: -0.035 | inactive: -0.033 | inactive: -0.046 | inactive: 0.02
NSFL1C isoform 5 (UniProt Q9UNZ2) | inactive: 0.006 | inactive: -0.001 | inactive: 0.01 | inactive: 0.037 | inactive: -0.002 | inactive: -0.016 | inactive: 0.002 | inactive: 0.044 | inactive: -0.034 | inactive: 0.007
NFKBIB (UniProt Q15653) | inactive: -0.108 | inactive: -0.11 | inactive: 0 | inactive: 0.01 | inactive: 0.034 | inactive: -0.026 | inactive: -0.014 | inactive: 0.012 | inactive: -0.082 | inactive: 0.015
NENF (UniProt Q9UMX5) | inactive: 0.022 | inactive: 0.028 | inactive: -0.026 | inactive: -0.04 | inactive: 0.016 | inactive: 0.04 | inactive: -0.019 | inactive: -0.005 | inactive: -0.066 | inactive: 0.056
NRM (UniProt Q8IXM6) | inactive: 0.019 | inactive: 0.018 | inactive: -0.05 | inactive: 0 | inactive: -0.029 | inactive: -0.022 | inactive: 0.108 | inactive: 0.017 |  | inactive: -0.014
NRDC isoform 2 (UniProt O43847) | inactive: -0.18 | active: -0.371 | inactive: 0.069 | inactive: 0.038 |  | inactive: -0.087 | inactive: 0.055 |  | inactive: 0 | inactive: -0.087
NFATC2IP (UniProt Q8NCF5) | inactive: -0.09 | active: -0.278 | inactive: 0.069 | inactive: -0.052 |  | inactive: 0.038 | inactive: 0.048 |  | inactive: -0.008 | inactive: -0.103
NIP7 (UniProt Q9Y221) | inactive: 0.156 | inactive: 0.224 | inactive: -0.065 | inactive: -0.231 | inactive: -0.148 | inactive: 0.131 | inactive: -0.109 | inactive: -0.039 | inactive: 0.272 | inactive: 0.277
NSF (UniProt P46459) | inactive: -0.058 | inactive: -0.067 | inactive: 0.038 | inactive: 0.02 | inactive: -0.028 | inactive: -0.054 | inactive: 0.021 | inactive: 0.044 | inactive: -0.006 | inactive: -0.033
NR2C2 isoform 2 (UniProt P49116) | inactive: 0.051 | inactive: -0.102 | inactive: 0.055 | inactive: 0.036 |  | inactive: 0.049 | inactive: -0.069 |  | inactive: 0.036 | inactive: 0.046
NHLRC2 (UniProt Q8NBF2) | inactive: 0.024 | inactive: 0.029 | inactive: -0.026 | inactive: -0.06 |  | inactive: -0.109 | inactive: 0.003 |  | inactive: -0.064 | active: -0.272
NFKB1 isoform 2 (UniProt P19838) | inactive: 0.003 | inactive: -0.158 | inactive: 0.046 | inactive: -0.187 | inactive: 0.014 | inactive: -0.124 | inactive: 0.033 | inactive: 0.058 | inactive: 0.155 | inactive: -0.017

Target | log2 fold change [1] | log2 fold change (volasertib) | log2 fold change [2] | log2 fold change (epoxomicin) | log2 fold change [3] | log2 fold change [4] | log2 fold change [5] | log2 fold change (rosiglitazone) | log2 fold change [6] | log2 fold change [7]
NFKBIE (UniProt O00221) | inactive: -0.098 | inactive: -0.115 | inactive: 0.058 | inactive: 0.121 | inactive: -0.061 | inactive: 0.026 | inactive: 0.003 |  | inactive: -0.039 | inactive: 0.084
NOA1 (UniProt Q8NC60) | inactive: 0 | inactive: -0.003 | inactive: 0.022 | inactive: -0.062 | inactive: -0.083 | inactive: 0.006 | inactive: 0.03 | inactive: 0.073 | inactive: 0.003 | inactive: -0.075
NLRP2 (UniProt Q9NX02) | inactive: -0.114 | inactive: -0.506 | inactive: 0.066 | inactive: -0.063 | inactive: -0.052 | inactive: -0.044 | inactive: -0.005 | inactive: -0.004 | inactive: 0.081 | inactive: -0.02
NEMP1 (UniProt O14524) | inactive: 0.007 | inactive: -0.128 | inactive: -0.023 | inactive: 0.015 |  | inactive: 0.018 | inactive: -0.003 |  | inactive: 0.01 | inactive: -0.106
NEK9 (UniProt Q8TD19) | inactive: -0.05 | inactive: -0.066 | inactive: 0.047 | inactive: 0.008 | inactive: 0.015 | inactive: -0.032 | inactive: 0.001 | inactive: 0.073 | inactive: -0.007 | inactive: -0.092
NLN (UniProt Q9BYT8) | inactive: 0.017 | inactive: 0.041 | inactive: -0.001 | inactive: 0.056 | inactive: -0.027 | inactive: -0.064 | inactive: -0.01 | inactive: -0.002 | inactive: -0.025 | inactive: -0.044
NPLOC4 isoform 2 (UniProt Q8TAT6) | inactive: 0.037 | inactive: 0.003 | inactive: 0.023 | inactive: 0.013 | inactive: -0.04 | inactive: -0.027 | inactive: -0.013 | inactive: 0.014 | inactive: -0.071 | inactive: -0.028
NIPA2 (UniProt Q8N8Q9) | inactive: 0 | inactive: -0.051 | inactive: 0.033 | inactive: 0.063 | inactive: -0.008 | inactive: -0.029 | inactive: 0.177 | inactive: -0.095 | inactive: -0.073 | inactive: -0.019
NOP16 (UniProt Q9Y3C1) | inactive: 0.176 | inactive: 0.462 | inactive: -0.033 | inactive: -0.238 | inactive: -0.058 | inactive: 0.296 | inactive: -0.187 | inactive: -0.139 | inactive: 0.323 | inactive: 0.176
NIF3L1 (UniProt Q9GZT8) | inactive: 0.037 | inactive: 0.083 | inactive: -0.048 | inactive: -0.031 | inactive: 0.024 | inactive: -0.016 | inactive: -0.01 | inactive: -0.062 | inactive: -0.083 | inactive: -0.012
NQO1 (UniProt P15559) | inactive: 0.011 | inactive: 0.057 | active: 0.276 | inactive: 0.083 |  | inactive: -0.064 | inactive: -0.005 |  | active: 0.356 | inactive: 0.046
NF2 (UniProt P35240) | inactive: -0.003 | inactive: -0.109 | inactive: 0.035 | inactive: -0.015 | inactive: -0.027 | inactive: -0.048 | inactive: -0.018 | inactive: 0.014 | inactive: -0.03 | inactive: -0.008
NIPSNAP2 (UniProt O75323) | inactive: 0.043 | inactive: 0.009 | inactive: -0.003 | inactive: 0.07 |  | inactive: -0.115 | inactive: -0.041 |  | inactive: -0.083 | inactive: 0.028
NFAT5 isoform 5 (UniProt O94916) | inactive: 0.027 | inactive: 0.153 | inactive: 0 | inactive: 0.018 | inactive: -0.006 | inactive: -0.057 | inactive: 0.068 | inactive: 0.201 | inactive: 0.122 | inactive: 0.087
NIBAN1 (UniProt Q9BZQ8) | inactive: -0.16 | active: -0.428 | inactive: 0.073 | inactive: 0.066 |  | inactive: -0.085 | inactive: 0.022 |  | inactive: 0.04 | inactive: -0.208

Record cards, as listed above. Values in the order: log2 fold change [1]	log2 fold change (volasertib)	log2 fold change [2]	log2 fold change (epoxomicin)	log2 fold change [3]	log2 fold change [4]	log2 fold change [5]	log2 fold change (rosiglitazone)	log2 fold change [6]	log2 fold change [7]
NIBAN2 (UniProt Q96TA1) is listed with inactive: -0.037	inactive: -0.102	inactive: 0.043	inactive: 0.039	inactive: -0.021	inactive: -0.023	inactive: -0.017	inactive: 0.011	inactive: -0.042	inactive: -0.018
NR2F2 (UniProt P24468) is listed with inactive: 0.088	inactive: -0.1	inactive: 0.014	inactive: 0.136	inactive: 0.032	inactive: -0.012	inactive: 0.006	inactive: 0.052	inactive: 0.013	inactive: 0.071

Reference: the supplement of paper PMC10849652
